Values of other authors in patent US10203334B2, “Methods and compositions related to nucleic acid binding assays” (Nubad, LLC, priority 2012, dated 2019).
Some results were stated once for a whole list of compounds, not compound by compound. At least one structure is not confirmed: it was looked up by name or label, or the drawing left a doubt.

Settings: cited from earlier work

CN1CCN(c2ccc3[nH]c(-c4ccc5[nH]c(-c6ccc(O)cc6)nc5c4)nc3c2)CC1 [Hoechst 33258]
solubility in water (solutions that can be prepared): up to 2%
